{"source": "PubChem BioAssay AID1508600", "about": "(Functional Genomics Laboratory (NCATS/FGL), 2020)", "note": "The campaign covered roughly 53,000 sequences. About 3,700 (7%) were called active.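 Rule for the calls: active = gene knockdowns whose robust z-score for IL-1 alpha signal is at least 2 or at most -2, so actives lie on both sides; inactive = the rest.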 Some of the results follow.", "data": [{"test": "Components of the Cytosolic LPS Sensing Pathway: Gene Identification via Genome-wide siRNA Screen;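 note: robust z of the log signal after scaling to non-targeting control siRNA wells of the plate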", "conditions": "RAW264.7 macrophages, IL-1a HTRF, actives lie on both sides, screened at 100 nM (by protocol), cells primed 5 h with Pam3CSK4 first", "how_it_was_run": "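Cells (RAW264.7, 1×10^4 per well) were transfected with siRNA at 100 nM and cultured 48h at 37 degrees C. Pam3CSK4 was added for 5 hours; LipidA transfection followed for 24 hour. IL-1a was then measured by HTRF.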", "values": [{"sequence": "CCAGUCUUAUCUGUAGAAGTT against Obox1", "z-score": "inactive: -1.69"}, {"sequence": "GCAUGCUUUCUGAAUACAATT against Cdk8", "z-score": "active: 2.17"}, {"sequence": "GGUUUAGGAUUUUUUGUUGTT against Ccr5", "z-score": "inactive: 0.121"}, {"sequence": "GGAUAAUUGGGAUGAUGACTT against Sem1", "z-score": "active: -2.24"}, {"sequence": "GGUUAAUCUGAGAAUUCUATT against Kcnk1", "z-score": "inactive: 0.717"}, {"sequence": "CCAACUUUAUCUAAGGUGCTT against Bhmt", "z-score": "inactive: -0.349"}, {"sequence": "GGUGAUAAAGCCAAGCAAATT against Vps4b", "z-score": "inactive: -0.48"}, {"sequence": "GGAUAAAAUUGAGUCUAUGTT against Was", "z-score": "inactive: 1.81"}, {"sequence": "GGGUGAGUCACGAAAGUCATT against Epor", "z-score": "inactive: -0.453"}, {"sequence": "GCAUGCAUCUUCCUUCGACTT against Cabp2", "z-score": "inactive: -1.4"}, {"sequence": "GGAAGACAUUCACGAUUGUTT against Deptor", "z-score": "inactive: -0.0976"}, {"sequence": "GGGACAAGAAGAACAAGAGTT against Srp14", "z-score": "inactive: -1.33"}, {"sequence": "GGCUGUCUUCUGAAGGACATT against Mrpl43", "z-score": "inactive: -0.429"}, {"sequence": "GUGCAGUUGUGACAAUAUATT against Pramel3", "z-score": "inactive: -1.23"}, {"sequence": "GGACUUCAACUUGAUGGAGTT against Add2", "z-score": "active: 2.02"}, {"sequence": "CGAAAUGACAGUGUUAUUCTT against Mpl", "z-score": "inactive: 0.185"}, {"sequence": "CGAUUGUAUAGCUUUUAAGTT against Gfpt2", "z-score": "inactive: 0.489"}, {"sequence": "GCUCCAUACACGAAUGAGCTT against Lpar1", "z-score": "inactive: 0.347"}, {"sequence": "GCGUGGAUAACACUGUUGUTT against Hira", "z-score": "inactive: -0.391"}, {"sequence": "GACGAAUAUCAUCUCACACTT against Olfr875", "z-score": "inactive: 0.901"}, {"sequence": "GGAGCUCUUUGACUUCUUGTT against Uqcrh", "z-score": "inactive: 0.359"}, {"sequence": "GACGUGAUCUGCUUUUACUTT against Gpr137", "z-score": "inactive: 0.0435"}, {"sequence": "GGAAGGACAGACAGACAAGTT against Pxt1", "z-score": "inactive: 0.165"}, {"sequence": "GGAAAAAUAGGUCGAAUGATT against Arntl", "z-score": "inactive: 0.229"}, {"sequence": "GGGUUGUGUCUGAAGAGAATT against Jade1", "z-score": "inactive: -0.57"}, {"sequence": "CCGUAUCAUCCAGUUUAACTT against Gnpda1", "z-score": "inactive: -0.429"}, {"sequence": "CCGAAUUUCUGCAUUUAACTT against Cnbp", "z-score": "inactive: 0.292"}, {"sequence": "GGCUGACAAGGCCAAAUACTT against Fam110b", "z-score": "inactive: 1.23"}, {"sequence": "GGACAUGGAAAACAAAAUCTT against Capzb", "z-score": "inactive: 0.645"}, {"sequence": "GGAAACUUGAUUAUUUAGGTT against Vrk2", "z-score": "inactive: 0.915"}, {"sequence": "GGCUGCUGUUGUGCCUAAATT against Zdhhc12", "z-score": "inactive: 0.299"}, {"sequence": "GGUAUUUUUGCUCAGUGCATT against Tmem266", "z-score": "inactive: -0.22"}, {"sequence": "GCUGAGACUUCGAGCCUAUTT against Polr2c", "z-score": "inactive: -0.976"}, {"sequence": "GGAGGAAUCAUAUAAUCUCTT against Pnpla3", "z-score": "inactive: 1.22"}, {"sequence": "GGGCUCUGUGGAAAUCAUGTT against Rnf187", "z-score": "inactive: -0.043"}, {"sequence": "GGCUCUGGCUGAUUUUGCATT against Prcp", "z-score": "inactive: 1.36"}, {"sequence": "GGCAUUAAAUGAUUACAAGTT against Mtf2", "z-score": "inactive: 0.549"}, {"sequence": "GGUCAGAGAAAUGAUGUCUTT against Osbpl11", "z-score": "inactive: -1.77"}, {"sequence": "GGUUUCCUGACAGAAAACCTT against Wdr64", "z-score": "inactive: 0.0573"}, {"sequence": "CCGAGGAUUUGAAACAGUATT against Pir", "z-score": "inactive: -0.858"}, {"sequence": "GGUUCAGCCUGAAAUAGAGTT against Syt5", "z-score": "inactive: -0.697"}, {"sequence": "CCAAGUUUCCCGGUGAUAATT against Pla2g2a", "z-score": "inactive: -1.5"}, {"sequence": "GCCGGGAAGACAAUAACUGTT against Il10", "z-score": "inactive: 0.954"}, {"sequence": "GGUGUGUGUUCCACUAAAGTT against Ptpn18", "z-score": "inactive: -1.41"}, {"sequence": "GCUAUGAGACAAGGCUUUCTT against Gbp9", "z-score": "inactive: -0.185"}, {"sequence": "GGUAUCUGACCUGAGCAUGTT against Msln", "z-score": "inactive: -0.394"}, {"sequence": "GGAUUCUAGGGUUGACAUUTT against Krt73", "z-score": "inactive: 0.805"}, {"sequence": "GGUUAUUAUGACCAAGAAATT against Sf3b1", "z-score": "active: -2.71"}, {"sequence": "GGAGCAAAGGGUAGGGAAATT against 1700052K11Rik", "z-score": "inactive: 0.293"}, {"sequence": "GGUCUGUGAGGAACAAAAGTT against Ccnd2", "z-score": "active: -2.26"}, {"sequence": "CGAUGGAAGUUUAAACCUCTT against Htr1a", "z-score": "inactive: 0.326"}, {"sequence": "GCACUCAAGGUUUUACUGUTT against Satb1", "z-score": "inactive: -0.356"}, {"sequence": "GCAAGUGUAGAUAAAGUAUTT against Msi2", "z-score": "inactive: 0.751"}, {"sequence": "GGAUAUUCAGGACUUUGAUTT against Slc2a1", "z-score": "inactive: 0.0675"}, {"sequence": "GCAAUCUUGAGUUUGCACATT against Haghl", "z-score": "inactive: 0.377"}, {"sequence": "GGACUAUUAGCUCGAACUUTT against Dlx2", "z-score": "inactive: 0.471"}, {"sequence": "CGGAUAAUCAACAUUUCCUTT against Plekha7", "z-score": "inactive: 0.775"}, {"sequence": "GGAAGGUUUGUUGUUUUGUTT against Apon", "z-score": "inactive: -1.58"}, {"sequence": "GGUAAAGAAAGACGACCACTT against Plpp2", "z-score": "inactive: 0.00336"}, {"sequence": "GGAAGAUCCUCGAUAGUCATT against Rgs7", "z-score": "inactive: 1.2"}, {"sequence": "GGAGAAAAAUGUUGAUGAUTT against Ccer1", "z-score": "inactive: -1.74"}, {"sequence": "GCACUAUCGUUUUUCAAUCTT against Tmtc3", "z-score": "inactive: -0.617"}, {"sequence": "GGAAUUGACAUAUUCAGUCTT against 9130221H12Rik", "z-score": "inactive: -1.13"}, {"sequence": "GGGAUCCAGUUGAGGAUCUTT against Sowahb", "z-score": "inactive: -0.0561"}, {"sequence": "GGUCUUCAGGAACCUGAGATT against Pip4k2c", "z-score": "inactive: -1.82"}, {"sequence": "CGUAAAUGGCGAUUGAUCUTT against Mctp1", "z-score": "inactive: -0.711"}, {"sequence": "GGACUUCUCUGUGAAGAUGTT against Ctsf", "z-score": "inactive: -0.129"}, {"sequence": "CGGCCUUCAUCUGCCUUUUTT against Olfr1222", "z-score": "inactive: 0.475"}, {"sequence": "GGGCUUCUUCAAGAGAACGTT against Nr4a3", "z-score": "inactive: 1.22"}, {"sequence": "GACCUUUCUCUUCUUGGCUTT against Olfr434", "z-score": "active: -2.1"}, {"sequence": "GGCCAAGUUCCAAACAAGATT against Zfp109", "z-score": "inactive: 1.09"}, {"sequence": "CCCUGACUUGUCCUUACAATT against Trem3", "z-score": "inactive: -0.831"}, {"sequence": "CCAAUAAGGAAAAAUCUGGTT against Cenpc1", "z-score": "inactive: -0.291"}, {"sequence": "GGAGGACUUCCAGAUCCAATT against Robo4", "z-score": "inactive: 0.104"}, {"sequence": "GGAGAUGAACCAUUAUGUCTT against Mycbp", "z-score": "active: -2.03"}, {"sequence": "GCUUUUCACACGAAAAGGATT against Samd4b", "z-score": "inactive: -0.521"}, {"sequence": "GGAAUUUAUUGAGGUCUUUTT against Plcl2", "z-score": "inactive: 0.0305"}, {"sequence": "GGUUCACGGUUUAUAAAGUTT against Sgk3", "z-score": "inactive: -0.652"}, {"sequence": "CCCUGUUUCUUCUCAAAGUTT against Mrgpra2b", "z-score": "inactive: -0.0171"}, {"sequence": "GGUGCUUCUUCACUCCAUGTT against Vars2", "z-score": "inactive: -0.244"}, {"sequence": "GGAGUCUUACAUAGGAAAATT against Cckbr", "z-score": "inactive: 0.569"}, {"sequence": "GCAUGAUUACCAGAACCACTT against Fcgr2b", "z-score": "inactive: 0.225"}, {"sequence": "GGACAACUCUCAUGUAAUATT against Tbck", "z-score": "inactive: -0.407"}, {"sequence": "GGCCAAACAUAAUUUUGAGTT against Cwf19l2", "z-score": "inactive: -0.232"}, {"sequence": "GGCAUCCUGAAAAACAAAGTT against Celsr1", "z-score": "inactive: -0.0587"}, {"sequence": "GGAAAUCAAGCCCUACAUCTT against Col4a2", "z-score": "inactive: 0.152"}, {"sequence": "GGCUUGCUUUGCUUCCCUUTT against Med28", "z-score": "inactive: -1.24"}, {"sequence": "GGGCAUCAUCCUGAAAGAGTT against Cenpb", "z-score": "inactive: -1.05"}, {"sequence": "GGUGUGCAUCAAGCGACUGTT against Cacng6", "z-score": "active: 2.1"}, {"sequence": "UGUGGACAAGGACUACUAATT against Ldoc1", "z-score": "inactive: -1.15"}, {"sequence": "GCUUAUUGAACUAUUGUUGTT against Trpc4", "z-score": "active: 3.72"}, {"sequence": "GGAGAAGGUCGAAAAGCCUTT against Rybp", "z-score": "active: -2.01"}, {"sequence": "GCUUGAUUGUCAGUUGGAATT against Tcp11", "z-score": "inactive: -0.364"}, {"sequence": "GAGAAGUCAAAACUGUCAUTT against Ear1", "z-score": "inactive: -0.212"}, {"sequence": "GGUGAUGUAAGCGUGAUUATT against Zfp763", "z-score": "inactive: -0.431"}, {"sequence": "CCAUGUAUGCCUCAACAUATT against Ltf", "z-score": "inactive: 0.517"}, {"sequence": "GGUAGAGCAUCAGUAUCUATT against Tex16", "z-score": "inactive: -0.47"}, {"sequence": "CGACAAAAGUACUUCGAGCTT against Scrib", "z-score": "inactive: -0.924"}, {"sequence": "GCAAUGGUUCAGUAUGUACTT against Tpgs2", "z-score": "active: -2.01"}, {"sequence": "GGAAAAAGCUGUGAUACUUTT against Hspbap1", "z-score": "inactive: -0.895"}, {"sequence": "CGCUGCCUAAACAAGAUUATT against Cacna1f", "z-score": "active: 3.28"}, {"sequence": "CCAUUGGAGGAUAAGUUUUTT against Mtm1", "z-score": "inactive: -0.0988"}, {"sequence": "AUGGGAGAAUCAGCAGAACTT against Set", "z-score": "active: -2.77"}, {"sequence": "CCCUGGAUUGAGGAUCGUUTT against Mrgpra8", "z-score": "inactive: -1.14"}, {"sequence": "GGCUGCCUAACUGAUAACATT against Inpp4b", "z-score": "inactive: 0.24"}, {"sequence": "GGAAGUUGUUGGGAACUUCTT against Afmid", "z-score": "inactive: -0.401"}, {"sequence": "GGUAGUCAGGGCUGACUUATT against Tsen15", "z-score": "inactive: -0.304"}, {"sequence": "GCCAAGGACAACUAUUUUGTT against Kcnj9", "z-score": "inactive: 0.048"}]}]}
